Consider 108 compounds from PubChem BioAssay AID1159583 (ICCB-Longwood Screening Facility, Harvard Medical School, 2016).

Structures are written as SMILES. The list shows a part of the results. Some salts and complexes are drawn in separate pieces, as the source files them; their charges need not balance.

This assay can be described thus: hypoxia reporter signal reduction in M. tuberculosis – fluorescence, absorbance growth readout, primary screen (AID 1159583). As to conditions: M. tuberculosis hypoxia-regulated fluorescent reporter, measured here: M. tuberculosis growth (absorbance), stronger effect = higher value, concentration not given here.
Turning to `COc1ccccc1CNC(=O)COC(=O)C(O)(c1ccccc1)c1ccccc1`, the growth inhibition was -4.43%.
Turning to `O=[N+]([O-])c1cc([N+](=O)[O-])c(-c2cnn(-c3ccccc3)c2)c([N+](=O)[O-])c1`, the growth inhibition is 0.0124%.
To `CC(C)(C)C(=O)NC(Sc1ncccn1)C(Cl)(Cl)Cl` (stereo not drawn) belongs -5.02%.
As for `Clc1n[nH]nc1-c1nn[nH][15n]1`, the growth inhibition was -1.39%.
As to `CCOP(=O)(Nc1ccc(C)cn1)OCC`, the growth inhibition was found to be 3.64%.
As to `O=[N+]([O-])c1cc([N+](=O)[O-])c(-n2nnc3ccccc32)c([N+](=O)[O-])c1`, the growth inhibition was 11.4%.
As for `O=P1(Nc2ccccn2)COc2ccccc2OC1`, the growth inhibition is -13.2%.
The same measure for `O=[As](O)(c1cccs1)c1cccs1`: 16.6%; for `NS(=O)(=O)c1cccc(NC(=O)COC(=O)C(O)(c2ccccc2)c2ccccc2)c1`: -11.1%.
The same measure for `O=P1(Nc2ccc(Br)cn2)COc2ccccc2OC1`: 15.1%.
To `CCCOc1ccc(NP(C)(=O)Oc2ccc(Cl)cc2)cc1` (stereo not drawn) belongs 12.3%; to `CP(=O)(Nc1ccc(SC(F)(F)F)cc1)Oc1ccccc1` (stereo not drawn), 6.06%.
As for `Nc1cccc([As](=O)(O)c2ccccc2)c1`, the growth inhibition amounted to 7.81%.
As to `CN1CCCCC1COC(=O)C1(O)c2ccccc2CCc2ccccc21` (stereo not drawn), the growth inhibition is -3.93%.
The same measure for `COc1ccccc1OP(C)(=O)Nc1c(C)cccc1C` (stereo not drawn): 3.03%; for `O=P1(Nc2ncccn2)COc2ccccc2OC1`: 2.19%; for `CCCC1OP(=O)(Nc2ccccc2)OCC1CC` (stereo not drawn): 24.1%.
Consider `O=C(/C=C/c1ccccc1)OC1CN2CCC1CC2` (stereo not drawn), for which the growth inhibition is -2.47%.
The same measure for `CCOC(=O)C(CC)C1=NC(C)(C)Cc2ccccc21.O=[N+]([O-])c1cc([N+](=O)[O-])c(O)c([N+](=O)[O-])c1` (stereo not drawn): 0.617%.
For `CN(C)C1(CNC(=O)c2ccc(S(C)(=O)=O)cc2)CCCCC1`, the growth inhibition is -9.1%.
To `O=[N+]([O-])c1cc([N+](=O)[O-])c(Nc2nnnn2CCO)c([N+](=O)[O-])c1` belongs 10.1%.
The same measure for `COc1cc(C2NCCC3(OCCO3)C2(C)C)cc(OC)c1OC.O=[N+]([O-])c1cc([N+](=O)[O-])c(O)c([N+](=O)[O-])c1` (stereo not drawn): 11.1%; for `Cc1ccc(C(=O)OC2CN3CCC2CC3)cc1` (stereo not drawn): -2.84%.
The same measure for `CC1CCC(C(C)C)C(OP(=O)(Nc2ccccn2)c2ccccc2)C1` (stereo not drawn): 1.47%; for `Cc1nn(-c2ccccc2)c2c1P(=O)(N1CCOCC1)N(C)C(c1ccccc1)=N2` (stereo not drawn): 3.65%.
Turning to `CC1=NCCc2c1[nH]c1ccccc21.O=[N+]([O-])c1cc([N+](=O)[O-])c(O)c([N+](=O)[O-])c1`, the growth inhibition was determined as 0.932%.
For `O=[N+]([O-])c1ccc2c(c1)nnn2O`, the growth inhibition is -7.56%.
To `CN(C)C(=O)c1cc([N+](=O)[O-])cc2c1-c1c(cc([N+](=O)[O-])cc1[N+](=O)[O-])C2=O` belongs 20.2%; to `CCOP1(=S)c2c(C)nn(CCC#N)c2N=C(c2ccc(F)cc2)N1C` (stereo not drawn), 5.15%; to `N#CCCN(C(=O)COC(=O)C(O)(c1ccccc1)c1ccccc1)c1ccc(F)cc1`, -11.8%.
The same measure for `Cc1ccc(NC(=NP(=O)(N2CCOCC2)N2CCOCC2)N2CCOCC2)cc1`: -2.4%; for `NC(=O)Nc1ccc([As](=O)(O)O)cc1`: 9.09%.
To `O=C(O)COc1ccc([As](=O)(O)O)cc1[N+](=O)[O-]` belongs -9.19%.
For the compound `Nc1ccccc1[As](=O)(O)c1ccccc1`, the growth inhibition turned out to be 9.87%.
The same measure for `O=P(Nc1nccs1)(Oc1ccccc1)Oc1ccccc1`: -5.14%; for `O=P(Nc1nccs1)(c1ccccc1)c1nc2ccccc2s1` (stereo not drawn): 10.2%; for `O=C(O)c1cccc(Nc2c([N+](=O)[O-])cc([N+](=O)[O-])cc2[N+](=O)[O-])c1`: -1.69%.
The same measure for `CCOP1(=S)c2c(C)nn(CCC#N)c2N=C(c2ccccc2F)N1C` (stereo not drawn): -9.11%; for `CCOP(=O)(Nc1cccc2ccccc12)OCC`: 4.55%; for `CCCOP(=S)(Nc1nc(N)cc(=O)[nH]1)OCCC`: 15.6%.
As for `Cc1ccc(NCCc2c([N+](=O)[O-])cc([N+](=O)[O-])cc2[N+](=O)[O-])cc1`, the growth inhibition was found to be 6.25%.
To `Cc1cc(C)cc(OP(C)(=O)Nc2ccccn2)c1` (stereo not drawn) belongs 14.3%.
To `CP(=O)(Nc1cccc(Br)c1)Oc1ccccc1` (stereo not drawn) belongs 11.2%; to `CC1C=CCP(=O)(Oc2ccccc2)O1` (stereo not drawn), 2.22%.
As to `CCOC(=O)c1ccc(NP(C)(=O)Oc2cc(C)cc(C)c2)cc1` (stereo not drawn), the growth inhibition worked out at 0.593%.
To `Cc1cc(C)cc(OP(C)(=O)Nc2ccc(C)cc2C)c1` (stereo not drawn) belongs 0.341%; to `O=[As](O)(c1cccc(O)c1)c1cccc(O)c1`, 13.6%; to `COc1ccccc1OP(C)(=O)Nc1cccc(Br)c1` (stereo not drawn), 16.3%.
With `CS(=O)(=O)c1ccc(Cl)c(NC(=O)COC(=O)C(O)(c2ccccc2)c2ccccc2)c1`, the growth inhibition turned out to be 2.44%.
The same measure for `O=[As](O)(O)c1cccnc1`: 1.08%; for `COc1cc(C(=O)NCC2(N3CCOCC3)CCCCC2)cc(Cl)c1OC(C)C`: -0.987%.
To `O=C(OC1CN2CCC1CC2)c1ccc(Cl)cc1` (stereo not drawn) belongs -7.44%; to `CCC(CO)(C(=O)OC1CN2CCC1CC2)c1ccccc1` (stereo not drawn), -4.19%; to `COc1cc(I)ccc1[As](=O)(O)O`, -2.64%.
To `COc1ccc2nc(NP(=O)(c3ccccc3)c3ccccc3)sc2c1` belongs 6.54%.
In the case of `O=P1(N(CCCl)CCCl)Nc2ccccc2N1`, the growth inhibition was found to be 8.89%.
As for `Cc1cc(=O)[nH]c(N[N+](=O)[O-])n1`, the growth inhibition came out at 12.8%.
To `CCN(CC)CCCOC(=O)C(O)(c1ccccc1)c1ccccc1` belongs 5.91%; to `Cc1c2c(nc3ccccc13)SC(C(Cl)Cl)C2` (stereo not drawn), 8.72%.
The same measure for `Cc1cc(C)cc(OP(C)(N)=O)c1` (stereo not drawn): 2.47%; for `COc1ccc(OP(C)(=O)Nc2cccc(F)c2)cc1` (stereo not drawn): -7.35%; for `O=[N+]([O-])c1cc([N+](=O)[O-])c(-c2ccn[nH]2)s1`: 32.3%.
The same measure for `CC(C)NC(=O)NP(=O)(Oc1ccccc1)Oc1ccccc1`: 9.85%.
As to `COc1ccccc1OP(C)(=O)Nc1cc(Cl)ccc1C` (stereo not drawn), the growth inhibition is 6.05%.
To `O=C(OC1CN2CCC1CC2)c1cccc2[nH]cnc12` (stereo not drawn) belongs 10.4%; to `Cc1ccc(NP(C)(=O)Oc2ccccc2)c(C)c1` (stereo not drawn), 12.2%; to `CC(C)c1ccc(OP(=O)(Nc2ccccn2)Oc2ccccc2F)cc1` (stereo not drawn), -5.02%.
As to `COc1ccccc1OP(C)(=O)Nc1ccc(C)cc1` (stereo not drawn), the growth inhibition is -8.56%.
The same measure for `ClCCSc1nnc(-c2cccnc2)o1`: 15.6%; for `COc1ccc2c(c1O)-c1c(O)c(OC)cc3c1C(C2)[N+](C)(C)CC3.O=[N+]([O-])c1cc([N+](=O)[O-])c([O-])c([N+](=O)[O-])c1[O-]` (stereo not drawn): 0.308%.
The same measure for `CCOC(=O)c1ccc(NP(C)(=O)Oc2ccccc2)cc1` (stereo not drawn): -2.14%; for `O=[N+]([O-])c1ccc2c(c1)C=Nc1ccccc1O2`: -5.14%.
The same measure for `Cc1ccc2nc3c(c(C)c2c1)CC(C(Cl)Cl)S3` (stereo not drawn): -2.2%.
Take `Cc1cccc(C)c1OP(C)(N)=O` (stereo not drawn): the growth inhibition is -4.94%.
In the case of `Cc1ccc(OP(=O)(Nc2ccc([N+](=O)[O-])cn2)Oc2ccc(C)cc2)cc1`, the growth inhibition was 1.65%.
As for `CC(C)(C)c1ccc(OP(C)(=O)Nc2ccc(SC(F)(F)F)cc2)cc1` (stereo not drawn), the growth inhibition is 8.8%.
To `O=[N+]([O-])c1ccc(-c2cc([N+](=O)[O-])c(O)c([N+](=O)[O-])c2)cc1` belongs 1.51%; to `COc1cc(C(=O)NCC2(N3CCOCC3)CCCCC2)ccc1OCC(C)C`, 9.77%.
To `O=[As](O)(c1ccc(O)cc1)c1ccccc1O` belongs 58%; to `C[As](=O)(O)c1cccc(C(=O)O)c1`, 1.15%.
As for `O=[N+]([O-])c1cc([N+](=O)[O-])c(Nc2cccnc2)c([N+](=O)[O-])c1`, the growth inhibition was 8.17%.
To `O=[N+]([O-])c1ccc(Nc2ccc(Oc3ccc([N+](=O)[O-])cc3[N+](=O)[O-])cc2)c([N+](=O)[O-])c1` belongs -4.84%; to `CP(=O)(Nc1ccccc1Br)Oc1ccccc1` (stereo not drawn), -5.79%; to `COc1ccccc1OP(C)(=O)Nc1ccccc1` (stereo not drawn), 5.91%.
Take `Cc1cc(SC(NC=O)C(Cl)(Cl)Cl)ncn1` (stereo not drawn): the growth inhibition was 8.3%.
Take `O=P(Nc1ccccn1)(c1cccc2ccccc12)c1cccc2ccccc12`: the growth inhibition came out at 5.48%.
The same measure for `CCOC(=O)Nc1cccc([As](=O)(O)O)c1`: 2.75%; for `Cc1cc(SC(NC(=O)c2ccccc2)C(Cl)(Cl)Cl)nc(C(C)C)n1` (stereo not drawn): 5.33%; for `COc1ccc(NC(=NP(=O)(N2CCOCC2)N2CCOCC2)N2CCOCC2)cc1`: -4.94%.
To `CCCCOc1ccc(C(=O)NCC2(N3CCCCC3)CCCCC2)cc1OC` belongs 11.9%; to `CC1CCNP(=O)(N(CCCl)CCCl)O1` (stereo not drawn), 2.9%.
As for `CCOC(=O)Nc1ccc([As](=O)(O)O)c(O)c1`, the growth inhibition stood at 55.2%.
`CP(=O)(Nc1ccccn1)Oc1ccc(Cl)cc1` (stereo not drawn): the growth inhibition was 10.5%.
As for `CCC(C)N(CC(C)C)C(=S)SC(NC(C)=O)C(Cl)(Cl)Cl` (stereo not drawn), the growth inhibition stood at 6.93%.
With `O=[N+]([O-])c1cc([N+](=O)[O-])c(O)c([N+](=O)[O-])c1.c1ccc(Oc2ccncc2)cc1`, the growth inhibition is -15.9%.
For `CCOC(=O)c1ccc(NP(C)(=O)Oc2ccc(OC)cc2)cc1` (stereo not drawn), the growth inhibition amounted to 3.78%.
To `CCOC(=O)c1ccc(NC(=O)C(C)(CCl)SC)cc1` (stereo not drawn) belongs -5.95%; to `O=C(OC1CN2CCC1CC2)c1cccc([N+](=O)[O-])c1` (stereo not drawn), 5.61%.
For `Cc1cc(C)cc(OP(C)(=O)Nc2ccc(SC(F)(F)F)cc2)c1` (stereo not drawn), the growth inhibition is -1.32%.
The same measure for `O=C(Nc1ccncc1[N+](=O)[O-])c1ccc([N+](=O)[O-])cc1[N+](=O)[O-]`: 14.1%; for `CP(=O)(NC(=O)Nc1ccccc1)Oc1ccccc1` (stereo not drawn): 3.33%; for `O=C(COc1ccccc1)OC1CN2CCC1CC2` (stereo not drawn): 9.7%.
To `CCc1ccc(OP(C)(=O)N2CCN(c3ccc([N+](=O)[O-])cc3)CC2)cc1` (stereo not drawn) belongs 4.49%; to `CC1OP(=O)(Oc2ccccc2)C(O)C(O)C1N=[N+]=[N-]` (stereo not drawn), -7.09%; to `CP(=O)(Oc1ccccc1)OC(c1ccccc1)C(F)(F)F` (stereo not drawn), 6.17%.
The same measure for `COP1(=S)c2c(C)nn(CCC#N)c2N=C(c2ccc(F)cc2)N1C` (stereo not drawn): 0.341%; for `CP(=O)(Nc1ccc(SC(F)(F)F)cc1)Oc1ccc(Cl)cc1` (stereo not drawn): 2.58%.
Regarding `Cc1cccc(C)c1OP(C)(=O)Nc1ccc(SC(F)(F)F)cc1` (stereo not drawn), the growth inhibition was found to be 1.34%.
